Drawing on publication PMC11766031, this text covers binding for two molecules.

Protein sequences, listed by entry. Tags and fused reporters are not part of them.
UniProt Q9GZV5: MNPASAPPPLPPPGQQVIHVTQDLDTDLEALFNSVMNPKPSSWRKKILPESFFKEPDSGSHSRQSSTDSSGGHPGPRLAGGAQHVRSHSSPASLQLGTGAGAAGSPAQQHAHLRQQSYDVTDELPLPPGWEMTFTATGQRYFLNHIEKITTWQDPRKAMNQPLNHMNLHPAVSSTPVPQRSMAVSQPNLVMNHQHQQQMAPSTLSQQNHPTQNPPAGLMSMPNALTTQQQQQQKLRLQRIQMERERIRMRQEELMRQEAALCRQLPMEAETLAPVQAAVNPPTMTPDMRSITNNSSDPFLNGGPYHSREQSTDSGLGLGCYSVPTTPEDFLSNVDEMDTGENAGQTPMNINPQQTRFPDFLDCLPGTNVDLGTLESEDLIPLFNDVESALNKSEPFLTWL
UniProt P46937: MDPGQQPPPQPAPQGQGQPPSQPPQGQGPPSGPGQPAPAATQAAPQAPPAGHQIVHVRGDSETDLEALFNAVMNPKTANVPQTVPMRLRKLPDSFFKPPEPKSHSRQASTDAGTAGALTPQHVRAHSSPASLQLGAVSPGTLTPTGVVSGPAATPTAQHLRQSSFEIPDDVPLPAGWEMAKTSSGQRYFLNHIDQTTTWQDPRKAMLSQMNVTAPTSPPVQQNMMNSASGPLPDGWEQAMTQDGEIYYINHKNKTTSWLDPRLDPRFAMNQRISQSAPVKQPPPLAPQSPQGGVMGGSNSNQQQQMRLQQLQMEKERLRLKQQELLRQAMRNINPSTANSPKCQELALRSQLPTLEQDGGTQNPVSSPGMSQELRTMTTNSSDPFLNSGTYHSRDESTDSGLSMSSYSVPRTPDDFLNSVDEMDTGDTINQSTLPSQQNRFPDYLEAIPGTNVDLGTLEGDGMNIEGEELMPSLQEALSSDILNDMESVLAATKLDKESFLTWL

No constants are given. Whether binding was seen depends on the method and setting. In cells and extracts the contact can be indirect. Some results given as binding are weak or reduced against the parent protein; the word gives no strength. For some assays here: Where a sequence is shown, tags or fusion partners need not be part of it.

Assay [1] deals with TAZ, overexpressed in HepG2 cells (UniProt Q9GZV5). The experiment in a line: co-IP; after overexpression of YAP or TAZ for 48 h in HepG2 cells; rabbit serum IgG as negative control.
Assay [2] deals with YAP, overexpressed in HepG2 cells (UniProt P46937). The assay is described as above.
In assay [3] the target is yes-associated protein (YAP), endogenous (human (endogenous in HepG2, HuH6, HLF)) (UniProt P46937). The assay is described as follows: co-IP; endogenous YAP or TAZ precipitated from HepG2 cells, MPP5 detected; rabbit serum IgG as negative control.
For assay [4] the target is unchanged. The experiment in a line: proximity ligation; Duolink PLA on fixed, permeabilised HepG2, HuH6 and HLF cells with YAP and MPP5 antibodies; single antibody incubations as controls.
In another assay the target is HA-tagged YAP (UniProt P46937). The experiment in a line: co-IP; co-expression of HA-tagged YAP and Flag-tagged MPP5 isoforms for 48 h; YAP precipitated with an HA-specific antibody, MPP5 isoforms detected.

B1: membrane protein palmitoylated 5 (MPP5), endogenous (protein, UniProt Q8N3R9 1-675)
chain: MTTSHMNGHVTEESDSEVKNVDLASPEEHQKHREMAVDCPGDLGTRMMPIRRSAQLERIRQQQEDMRRRREEEGKKQELDLNSSMRLKKLAQIPPKTGIDNPMFDTEEGIVLESPHYAVKILEIEDLFSSLKHIQHTLVDSQSQEDISLLLQLVQNKDFQNAFKIHNAITVHMNKASPPFPLISNAQDLAQEVQTVLKPVHHKEGQELTALLNTPHIQALLLAHDKVAEQEMQLEPITDERVYESIGQYGGETVKIVRIEKARDIPLGATVRNEMDSVIISRIVKGGAAEKSGLLHEGDEVLEINGIEIRGKDVNEVFDLLSDMHGTLTFVLIPSQQIKPPPAKETVIHVKAHFDYDPSDDPYVPCRELGLSFQKGDILHVISQEDPNWWQAYREGDEDNQPLAGLVPGKSFQQQREAMKQTIEEDKEPEKSGKLWCAKKNKKKRKKVLYNANKNDDYDNEEILTYEEMSLYHQPANRKRPIILIGPQNCGQNELRQRLMNKEKDRFASAVPHTTRSRRDQEVAGRDYHFVSRQAFEADIAAGKFIEHGEFEKNLYGTSIDSVRQVINSGKICLLSLRTQSLKTLRNSDLKPYIIFIAPPSQERLRALLAKEGKNPKPEELREIIEKTREMEQNNGHYFDTAIVNSDLDKAYQELLRLINKLDTEPQWVPSTWLR
In the case of B1, the binding entry in assay [1], in assay [2], in assay [3] and in assay [4] was “binds” each time.

B2: Flag-tagged MPP5 (non-deleted isoform) (protein, UniProt Q8N3R9 1-675)
chain: MTTSHMNGHVTEESDSEVKNVDLASPEEHQKHREMAVDCPGDLGTRMMPIRRSAQLERIRQQQEDMRRRREEEGKKQELDLNSSMRLKKLAQIPPKTGIDNPMFDTEEGIVLESPHYAVKILEIEDLFSSLKHIQHTLVDSQSQEDISLLLQLVQNKDFQNAFKIHNAITVHMNKASPPFPLISNAQDLAQEVQTVLKPVHHKEGQELTALLNTPHIQALLLAHDKVAEQEMQLEPITDERVYESIGQYGGETVKIVRIEKARDIPLGATVRNEMDSVIISRIVKGGAAEKSGLLHEGDEVLEINGIEIRGKDVNEVFDLLSDMHGTLTFVLIPSQQIKPPPAKETVIHVKAHFDYDPSDDPYVPCRELGLSFQKGDILHVISQEDPNWWQAYREGDEDNQPLAGLVPGKSFQQQREAMKQTIEEDKEPEKSGKLWCAKKNKKKRKKVLYNANKNDDYDNEEILTYEEMSLYHQPANRKRPIILIGPQNCGQNELRQRLMNKEKDRFASAVPHTTRSRRDQEVAGRDYHFVSRQAFEADIAAGKFIEHGEFEKNLYGTSIDSVRQVINSGKICLLSLRTQSLKTLRNSDLKPYIIFIAPPSQERLRALLAKEGKNPKPEELREIIEKTREMEQNNGHYFDTAIVNSDLDKAYQELLRLINKLDTEPQWVPSTWLR
As for B2, in the assay with HA-tagged YAP, the binding entry was “binds”.
